Assay results published in the supplement of paper PMC4604168 (melanoma cell lines).
The list shows a part of the results. Many values rest on one well or one pass, so single values are uncertain.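 Cells were imaged in 1,536-well plates, and nuclei stained with an antibody against cleaved PARP were counted against all DNA-stained nuclei to give the apoptosis fraction. Screening doses were chosen to leave most cells alive, and resting and induced cleaved-PARP levels differ strongly between cell lines.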

Assays:
Assay in all cases: cleaved PARP positive nuclei fraction relative to DMSO control; melanoma cells; higher = more apoptosis
Conditions in all cases: library dose: low library concentration; 72 h
501Mel = system: 501Mel
A101D = system: A101D
A2058 = system: A2058
A375 = system: A375
C32 = system: C32
CBRC008 = system: CBRC008 (line from a melanoma biopsy)
CBRC013 = system: CBRC013 (line from a melanoma biopsy)
CBRC014 = system: CBRC014 (line from a melanoma biopsy)
CBRC016 = system: CBRC016 (line from a melanoma biopsy)
CBRC017 = system: CBRC017 (line from a melanoma biopsy)
COLO792 = system: COLO792
COLO800 = system: COLO800
COLO829 = system: COLO829
G361 = system: G361
IPC-298 = system: IPC-298
IST-MEL1 = system: IST-MEL1
LB2518-MEL = system: LB2518-MEL
LOXIMVI = system: LOXIMVI
MEL-HO = system: MEL-HO

SMILES	cleaved PARP positive nuclei fraction (501Mel) [%]	cleaved PARP positive nuclei fraction (A101D) [%]	cleaved PARP positive nuclei fraction (A2058) [%]	cleaved PARP positive nuclei fraction (A375) [%]	cleaved PARP positive nuclei fraction (C32) [%]	cleaved PARP positive nuclei fraction (CBRC008) [%]	cleaved PARP positive nuclei fraction (CBRC013) [%]	cleaved PARP positive nuclei fraction (CBRC014) [%]	cleaved PARP positive nuclei fraction (CBRC016) [%]	cleaved PARP positive nuclei fraction (CBRC017) [%]	cleaved PARP positive nuclei fraction (COLO792) [%]	cleaved PARP positive nuclei fraction (COLO800) [%]	cleaved PARP positive nuclei fraction (COLO829) [%]	cleaved PARP positive nuclei fraction (G361) [%]	cleaved PARP positive nuclei fraction (IPC-298) [%]	cleaved PARP positive nuclei fraction (IST-MEL1) [%]	cleaved PARP positive nuclei fraction (LB2518-MEL) [%]	cleaved PARP positive nuclei fraction (LOXIMVI) [%]	cleaved PARP positive nuclei fraction (MEL-HO) [%]
Cc1cc(Nc2cc(N3CCN(C)CC3)nc(Sc3ccc(NC(=O)C4CC4)cc3)n2)n[nH]1 [Tozasertib] + COc1cc(Nc2ncc(F)c(Nc3ccc4c(n3)NC(=O)C(C)(C)O4)n2)cc(OC)c1OC [Tamatinib] (first compound 0.006 µM, partner dose 0.4 µM)	277	26.1	54.8	212	82.1	252	164	88.5	102	115	312	67.9	163	177	81.7	113	116	99.6	155
O=C(/C=C/c1cccnc1)NCCCCC1CCN(C(=O)c2ccccc2)CC1 + C=CCn1c(=O)c2cnc(Nc3ccc(N4CCN(C)CC4)cc3)nc2n1-c1cccc(C(C)(C)O)n1 [MK1775] (first compound 0.01 µM, partner dose 0.02 µM)	87.4	116	45.2	1240	133	2230	131	109	453	778	289	135	232	2470	315	83.6	106	104	420
CC[C@]1(O)C[C@H]2CN(CCc3c([nH]c4ccccc34)[C@@](C(=O)OC)(c3cc4c(cc3OC)N(C=O)[C@H]3[C@@](O)(C(=O)OC)[C@H](OC(C)=O)[C@]5(CC)C=CCN6CC[C@]43[C@@H]65)C2)C1 [vincristine] + Cc1ccc(NC(=O)c2cccc(N(C)C)c2)cc1NC(=O)c1ccc(O)cc1 [ZM336372] (first compound 0.0001 µM, partner dose 2 µM)	104	74.3	973	376	285	208	123	116	50.6	114	60.8	251	189	110	108	294	229	149	79.3
CCCCCCCCCCCCCCCCCCOP(=O)([O-])OC1CC[N+](C)(C)CC1 [Perifosine] + CN(NC(=O)CC(=O)NN(C)C(=S)c1ccccc1)C(=S)c1ccccc1 [STA4783] (first compound 0.4 µM, partner dose 0.006 µM)	196	110	94.3	3120	166	1190	173	533	81.1	125	188	68.3	166	156	124	242	116	81.5	76.7
N#CC[C@H](C1CCCC1)n1cc(-c2ncnc3[nH]ccc23)cn1 [ruxolitinib] + NC(=O)Nc1cc(-c2cccc(F)c2)sc1C(=O)N[C@H]1CCCNC1 [AZD7762] (first compound 1 µM, partner dose 0.02 µM)	38.8	45.2	118	167	96.5	75.5	87.7	86.9	247	110	132	86.4	72.1	120	82.9	57.7	65	103	68.1
CC[C@]1(O)C[C@H]2CN(CCc3c([nH]c4ccccc34)[C@@](C(=O)OC)(c3cc4c(cc3OC)N(C=O)[C@H]3[C@@](O)(C(=O)OC)[C@H](OC(C)=O)[C@]5(CC)C=CCN6CC[C@]43[C@@H]65)C2)C1 [vincristine] + OCCn1cc(-c2cnc3nnn(Cc4ccc5ncccc5c4)c3n2)cn1 [PF04217903] (first compound 0.0001 µM, partner dose 1 µM)	97	188	108	130	208	70.8	55.7	89.7	111	91.5	63	148	141	54.3	93.4	98.8	102	276	34.7
N#CC[C@H](C1CCCC1)n1cc(-c2ncnc3[nH]ccc23)cn1 [ruxolitinib] + CN(C)S(=O)(=O)c1ccc2c(c1)/C(=C/c1cc3c([nH]1)CCCC3)C(=O)N2 [SU6656] (first compound 1 µM, partner dose 0.4 µM)	88.5	152	135	29.8	118	192	157	78.5	108	110	191	78.1	79.3	169	50.3	35	175	23.2	135
O=c1[nH]nc(Sc2ncc([N+](=O)[O-])s2)n1-c1ccc2c(c1)OCCO2 + Cc1cc(N2CCOCC2)cc2[nH]c(-c3c(NC[C@@H](O)c4cccc(Cl)c4)cc[nH]c3=O)nc12 [BMS536924] (first compound 0.2 µM, partner dose 0.2 µM)	93.8	84.4	64.3	94.9	192	121	161	92.4	122	108	104	142	97.6	101	138	65.5	169	49.9	172
O=C(Nc1cc(C(F)(F)F)cc(C(F)(F)F)c1)c1cc(Cl)ccc1O + O=C(CCCCCCC(=O)Nc1ccccc1)NO [vorinostat] (first compound 0.016 µM, partner dose 0.08 µM)	196	85.4	63.5	129	33.3	42.5	128	88.3	205	114	171	47.1	88.6	107	42.8	101	48.1	81.2	35.7
Cc1cn(-c2cc(NC(=O)c3ccc(C)c(Nc4nccc(-c5cccnc5)n4)c3)cc(C(F)(F)F)c2)cn1 [nilotinib] + CN(C)S(=O)(=O)c1ccc2c(c1)/C(=C/c1cc3c([nH]1)CCCC3)C(=O)N2 [SU6656] (first compound 0.2 µM, partner dose 0.4 µM)	52.1	87.1	27.8	80	106	44.7	109	82.5	122	87.5	57.4	95	100	84.3	45.8	162	84.9	24.5	135
Cc1cc(Nc2cc(N3CCN(C)CC3)nc(Sc3ccc(NC(=O)C4CC4)cc3)n2)n[nH]1 [Tozasertib] + CN(NC(=O)CC(=O)NN(C)C(=S)c1ccccc1)C(=S)c1ccccc1 [STA4783] (first compound 0.006 µM, partner dose 0.006 µM)	218	159	175	7180	194	1410	78.4	517	217	201	129	75.8	67.6	126	21.1	86.7	185	74.8	147
CC[C@]1(O)C[C@H]2CN(CCc3c([nH]c4ccccc34)[C@@](C(=O)OC)(c3cc4c(cc3OC)N(C=O)[C@H]3[C@@](O)(C(=O)OC)[C@H](OC(C)=O)[C@]5(CC)C=CCN6CC[C@]43[C@@H]65)C2)C1 [vincristine] + NCC(=O)Nc1ccc(-n2nc(C(F)(F)F)cc2-c2ccc3c(ccc4ccccc43)c2)cc1 [OSU03012] (first compound 0.0001 µM, partner dose 1 µM)	618	56.7	95.2	8720	116	67.4	59.4	67.7	173	93.5	155	70.5	50.1	103	38.7	159	43.7	74.6	67.9
O=c1[nH]nc(Sc2ncc([N+](=O)[O-])s2)n1-c1ccc2c(c1)OCCO2 + CC(C)(C)c1cnc(CSc2cnc(NC(=O)C3CCNCC3)s2)o1 [SNS-032] (first compound 0.2 µM, partner dose 0.01 µM)	151	41.9	135	109	143	62.1	153	99.3	158	157	68	106	71.3	64.3	28.3	101	100	54.4	62.9
CC[C@]1(O)C[C@H]2CN(CCc3c([nH]c4ccccc34)[C@@](C(=O)OC)(c3cc4c(cc3OC)N(C=O)[C@H]3[C@@](O)(C(=O)OC)[C@H](OC(C)=O)[C@]5(CC)C=CCN6CC[C@]43[C@@H]65)C2)C1 [vincristine] + CN(NC(=O)CC(=O)NN(C)C(=S)c1ccccc1)C(=S)c1ccccc1 [STA4783] (first compound 0.0001 µM, partner dose 0.006 µM)	261	147	3550	1060	745	2750	69.5	482	301	242	244	187	295	237	70.9	124	74.6	46.1	274
O=C(Nc1cc(C(F)(F)F)cc(C(F)(F)F)c1)c1cc(Cl)ccc1O + NC(=O)Nc1cc(-c2cccc(F)c2)sc1C(=O)N[C@H]1CCCNC1 [AZD7762] (first compound 0.016 µM, partner dose 0.02 µM)	79.7	46.3	87	321	75	49.1	118	75.6	121	95.8	55.2	80.6	43.3	35	69	252	40.5	119	87
O=C(/C=C/c1cccnc1)NCCCCC1CCN(C(=O)c2ccccc2)CC1 + NC(=O)Nc1cc(-c2cccc(F)c2)sc1C(=O)N[C@H]1CCCNC1 [AZD7762] (first compound 0.01 µM, partner dose 0.02 µM)	191	46.4	78.7	372	257	7050	81.6	91.4	299	588	366	226	270	3650	207	108	401	52.6	223
Cc1ccc(Nc2nccc(N(C)c3ccc4c(C)n(C)nc4c3)n2)cc1S(N)(=O)=O [Pazopanib] + CO[C@@H]1[C@H](N(C)C(=O)c2ccccc2)C[C@H]2O[C@]1(C)n1c3ccccc3c3c4c(c5c6ccccc6n2c5c31)C(=O)NC4 [Midostaurin] (first compound 0.4 µM, partner dose 0.08 µM)	201	109	198	98.6	65.9	148	113	110	94.9	191	62.1	76.7	163	50.6	126	64.5	251	118	120

Quoted at random: two entries already listed
SMILES	cleaved PARP positive nuclei fraction (501Mel) [%]	cleaved PARP positive nuclei fraction (A101D) [%]	cleaved PARP positive nuclei fraction (A2058) [%]	cleaved PARP positive nuclei fraction (A375) [%]	cleaved PARP positive nuclei fraction (C32) [%]	cleaved PARP positive nuclei fraction (CBRC008) [%]	cleaved PARP positive nuclei fraction (CBRC013) [%]	cleaved PARP positive nuclei fraction (CBRC014) [%]	cleaved PARP positive nuclei fraction (CBRC016) [%]	cleaved PARP positive nuclei fraction (CBRC017) [%]	cleaved PARP positive nuclei fraction (COLO792) [%]	cleaved PARP positive nuclei fraction (COLO800) [%]	cleaved PARP positive nuclei fraction (COLO829) [%]	cleaved PARP positive nuclei fraction (G361) [%]	cleaved PARP positive nuclei fraction (IPC-298) [%]	cleaved PARP positive nuclei fraction (IST-MEL1) [%]	cleaved PARP positive nuclei fraction (LB2518-MEL) [%]	cleaved PARP positive nuclei fraction (LOXIMVI) [%]	cleaved PARP positive nuclei fraction (MEL-HO) [%]
CC[C@]1(O)C[C@H]2CN(CCc3c([nH]c4ccccc34)[C@@](C(=O)OC)(c3cc4c(cc3OC)N(C=O)[C@H]3[C@@](O)(C(=O)OC)[C@H](OC(C)=O)[C@]5(CC)C=CCN6CC[C@]43[C@@H]65)C2)C1 [vincristine] + OCCn1cc(-c2cnc3nnn(Cc4ccc5ncccc5c4)c3n2)cn1 [PF04217903] (first compound 0.0001 µM, partner dose 1 µM)	97	188	108	130	208	70.8	55.7	89.7	111	91.5	63	148	141	54.3	93.4	98.8	102	276	34.7
O=c1[nH]nc(Sc2ncc([N+](=O)[O-])s2)n1-c1ccc2c(c1)OCCO2 + Cc1cc(N2CCOCC2)cc2[nH]c(-c3c(NC[C@@H](O)c4cccc(Cl)c4)cc[nH]c3=O)nc12 [BMS536924] (first compound 0.2 µM, partner dose 0.2 µM)	93.8	84.4	64.3	94.9	192	121	161	92.4	122	108	104	142	97.6	101	138	65.5	169	49.9	172
